Data from the primary screen of doi:10.1371/journal.pone.0140310, rounded.

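The test systems are human melanoma cell lines, treated with two drugs together for 72 h and then stained and imaged. Each value is the count of nuclei relative to DMSO-treated wells, in %, so that 100 equals the control. Concentrations were fixed for each drug; these are the higher of two levels. These are primary screening values without error estimates.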 This is part of the screen, not chosen by result.

Drug key:
PF-562271 (0.4 µM): CN(c1ncccc1CNc1nc(Nc2ccc3c(c2)CC(=O)N3)ncc1C(F)(F)F)S(C)(=O)=O
NVP-BEZ235 (0.02 µM): Cn1c(=O)n(-c2ccc(C(C)(C)C#N)cc2)c2c3cc(-c4cnc5ccccc5c4)ccc3ncc21
OSI-906 (2 µM): C[C@]1(O)C[C@@H](c2nc(-c3ccc4ccc(-c5ccccc5)nc4c3)c3c(N)nccn32)C1
BMS-536924 (1 µM): Cc1cc(N2CCOCC2)cc2[nH]c(-c3c(NC[C@@H](O)c4cccc(Cl)c4)cc[nH]c3=O)nc12
KU-55933 (5 µM): O=c1cc(-c2cccc3c2Sc2ccccc2S3)oc(N2CCOCC2)c1
VX-702 (2 µM): NC(=O)c1ccc(N(C(N)=O)c2c(F)cccc2F)nc1-c1ccc(F)cc1F
sorafenib (2 µM): CNC(=O)c1cc(Oc2ccc(NC(=O)Nc3ccc(Cl)c(C(F)(F)F)c3)cc2)ccn1
GW0742 (10 µM): Cc1cc(SCc2sc(-c3ccc(C(F)(F)F)c(F)c3)nc2C)ccc1OCC(=O)O
sunitinib (2 µM): CCN(CC)CCNC(=O)c1c(C)[nH]c(/C=C2\C(=O)Nc3ccc(F)cc32)c1C
LFM-A13 (10 µM): C/C(O)=C(\C#N)C(=O)Nc1cc(Br)ccc1Br
pioglitazone (10 µM): CCc1ccc(CCOc2ccc(CC3SC(=O)NC3=O)cc2)nc1 (stereo unspecified)
bexarotene (10 µM): C=C(c1ccc(C(=O)O)cc1)c1cc2c(cc1C)C(C)(C)CCC2(C)C
RKI-983 (2 µM): C[C@@H](N)c1ccc(C(=O)Nc2ccnc3[nH]ccc23)cc1
lapatinib (4 µM): CS(=O)(=O)CCNCc1ccc(-c2ccc3ncnc(Nc4ccc(OCc5cccc(F)c5)c(Cl)c4)c3c2)o1
fingolimod (10 µM): CCCCCCCCc1ccc(CCC(N)(CO)CO)cc1
perifosine (2 µM): CCCCCCCCCCCCCCCCCCOP(=O)([O-])OC1CC[N+](C)(C)CC1
ruxolitinib (5 µM): N#CC[C@H](C1CCCC1)n1cc(-c2ncnc3[nH]ccc23)cn1
docetaxel (0.0005 µM): CC(=O)O[C@@]12CO[C@@H]1C[C@H](O)[C@@]1(C)C(=O)[C@H](O)C3=C(C)[C@@H](OC(=O)[C@H](O)[C@@H](NC(=O)OC(C)(C)C)c4ccccc4)C[C@@](O)([C@@H](OC(=O)c4ccccc4)[C@H]21)C3(C)C
tanespimycin (0.01 µM): C=CCNC1=C2C[C@@H](C)C[C@H](OC)[C@H](O)[C@@H](C)/C=C(\C)[C@H](OC(N)=O)[C@@H](OC)/C=C\C=C(/C)C(=O)NC(=CC1=O)C2=O

| Drugs | C32 |
|---|---|
| fingolimod + PF-562271 | 7.3 |
| docetaxel + sunitinib | 65.9 |
| BMS-536924 + fingolimod | 7.5 |
| GW0742 + RKI-983 | 75.8 |
| OSI-906 + sorafenib | 101 |
| GW0742 + docetaxel | 70.5 |
| sunitinib + sorafenib | 83.6 |
| fingolimod + pioglitazone | 10.1 |
| LFM-A13 + pioglitazone | 116 |
| sunitinib + NVP-BEZ235 | 60.9 |
| GW0742 + tanespimycin | 40.1 |
| lapatinib + fingolimod | 14.7 |
| ruxolitinib + BMS-536924 | 82.2 |
| KU-55933 + LFM-A13 | 120 |
| sorafenib + fingolimod | 18.9 |
| tanespimycin + LFM-A13 | 23.6 |
| ruxolitinib + lapatinib | 107 |
| bexarotene + GW0742 | 102 |
| VX-702 + sorafenib | 102 |
| LFM-A13 + perifosine | 87.5 |
| ruxolitinib + tanespimycin | 24.5 |
| bexarotene + fingolimod | 6.6 |
| fingolimod + NVP-BEZ235 | 11.7 |
| docetaxel + VX-702 | 66.5 |
| KU-55933 + sunitinib | 75.2 |
| LFM-A13 + NVP-BEZ235 | 113 |

Repeated from the top, 3 entries:

| Drugs | C32 |
|---|---|
| fingolimod + PF-562271 | 7.3 |
| docetaxel + sunitinib | 65.9 |
| BMS-536924 + fingolimod | 7.5 |